Some of these results come from one statement about several compounds together.
Target: T1, EphB4 kinase (Homo sapiens, UniProt P54760)
T1 construct: cytoplasmic domain of recombinant EphB4 kinase (amino acids 596–987, Homo sapiens EphB4); 6xHis (C); made in house; host or cells: Sf9 cells
T1 sequence (P54760 596-987): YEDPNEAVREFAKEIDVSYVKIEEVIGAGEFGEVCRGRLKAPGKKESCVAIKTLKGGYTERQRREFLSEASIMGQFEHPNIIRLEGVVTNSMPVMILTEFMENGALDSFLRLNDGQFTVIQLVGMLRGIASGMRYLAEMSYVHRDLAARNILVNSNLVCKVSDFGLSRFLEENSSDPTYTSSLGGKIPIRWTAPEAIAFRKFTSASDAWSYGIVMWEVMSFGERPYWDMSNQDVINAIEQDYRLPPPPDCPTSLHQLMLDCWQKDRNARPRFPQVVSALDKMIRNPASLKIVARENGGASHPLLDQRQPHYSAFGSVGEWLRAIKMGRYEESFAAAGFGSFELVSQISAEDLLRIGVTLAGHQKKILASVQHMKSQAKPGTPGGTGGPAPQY
Assay: Assay for EphB4 kinase activity (FRET, Example 7)
Assay type: biochemical
Conditions: 110 μM ATP

`COc1ccc(C(F)(F)F)cc1NC(=O)Nc1cccc(-c2cn3ccnc3c(-n3ccc(-c4ccncc4)n3)n2)c1` [Compound 16, 1-(2-Methoxy-5-trifluoromethyl-phe-nyl)-3-{3-[8-(3-pyridin-4-yl-pyra-zol-1-yl)-imidazo[1,2-a]pyrazin-6-yl]-phe-nyl}-urea] was tested, and the IC50 was ≤ 10 µM.
